Library screen at single concentrations

Results are given as percent effect. The controls that fix the scale are not given in the record; negative values are as filed. This is an unselected part of the compounds tested.

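Whole-cell growth test on Mycobacterium tuberculosis, read after 4 days in a medium based on cholesterol and the lipid DPPC; the read-out is not stated. Compounds at 500 µM. Higher reads as more growth inhibition (inferred: compounds with an IC50 in retests scored well above the rest). About 18,000 compounds were tested under these conditions; 5% (about 900) showed 50% or more at least once.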

For NC(=O)C1CCCN(C(=O)CNc2ccccc2)C1 (stereo not given) the result was 14.69%.
For O=C(NCC(O)C1CC1)c1cc(O)ccc1Cl (stereo not given) the result was -12.93%.
For CNC(=O)NC(=O)CN(C)CCOc1cccc(F)c1 the result was 28.67%.
For CNc1ccnc(C)c1 the result was 11.96%.
For Cc1cc(NC(=O)NCCCN2CCCC2=O)no1 the result was 2.868%.
For O=C(NCCSCCCO)Nc1ccccn1 the result was -0.1001%.
For NC1COC2(CCCCC2)C1 (stereo not given) the result was 5.514%.
For CN1CCCN(C(=O)Nc2cccc(F)c2)CC1 the result was 3.449%.
For CC1CCCN1CCN (stereo not given) the result was -17.01%.
For COCCC(NC(=O)NCc1ccccn1)C(C)(C)C (stereo not given) the result was -7.761%.
For O=c1ccccn1CCO the result was -28.01%.
For COc1ccc(CN2CCN(C)C(CCO)C2)cc1 (stereo not given) the result was 10.37%.
For CN(Cc1ccc(Br)o1)C(=O)c1nccnc1N the result was 44.63%.
For c1cnc(NCc2ccnc(N3CCOCC3)c2)nc1 the result was 2.19%.
For CCSCCNC(=O)c1cc(CC)[nH]c(=O)c1 the result was -8.182%.
For Cc1nn(C)c(C(=O)NCCCn2ccnc2)c1Cl the result was 17.99%.
For Cc1nc(C)c(CC(=O)Nc2nccs2)c(=O)[nH]1 the result was 1.842%.
For [O-][S+]1CCN(c2ccnc3ccc(Cl)cc23)CC1 the result was -5.945%.
For Cc1cnc(NC(=O)CCCNC(=O)C(C)(C)C)s1 the result was 5.128%.
For CC(C)CC(C)(N)CN (stereo not given) the result was 13.81%.
For CNc1cc(C(=O)NCc2cc(C)nn2C)ccn1 the result was 3.217%.
For O=C(Nc1ccncc1)c1ccc2c(c1)CCO2 the result was 32.48%.
For CC(=O)c1c[nH]c(C(=O)NCCCNS(C)(=O)=O)c1 the result was -7.928%.
For Clc1ccc(-c2noc(CN3CCCNCC3)n2)cc1 the result was 73.38%.
For CCN(CC)C(=O)NCC(O)c1ccsc1 (stereo not given) the result was -6.683%.
For c1ccc(CCNCCCN2CCOCC2)cc1 the result was 21.35%.
For O=C(Nc1cccc(CN2CCCC2=O)c1)C1CC1 the result was 10.05%.
For NC1CCN(C(=O)c2cnccn2)CC1 the result was -2.252%.
For CN(C)C(=O)c1ccc(Oc2ncccn2)cc1 the result was 2.673%.
For Cc1cccc(NCCC(=O)NC2CCCC2)n1 the result was 39.89%.
For CCC(=O)NCC(c1ccsc1)N(C)C (stereo not given) the result was 6.978%.
For O=C(NCCCN1CCOCC1)c1cc(Br)c[nH]1 the result was 10.71%.
For COc1ccccc1C(=O)N1CC[C@H](N)C1 the result was 12.59%.
For O=C(Nc1cccnc1)c1ccc(F)c(F)c1 the result was 38.95%.
For N#Cc1cc(N2CCNCC2)ccn1 the result was 0.03646%.
For OCCCNCC(F)(F)F the result was -0.3025%.
For CC(C)(C)CNc1ccc(OCCO)nc1 the result was -89.87%.
For CN1N=C(C(=O)NCc2cccc(C#N)c2)CCC1=O the result was 0.195%.
For NCc1cccc(OCC(F)F)n1 the result was 5.85%.
For NC(=O)CCS(=O)(=O)CCN1CCc2ccccc2C1 the result was 17.22%.
For CN(Cc1ccco1)c1ncnc2c1cnn2CCO the result was 8.335%.
For Cc1csc2nc(CSCCS(C)(=O)=O)cc(=O)n12 the result was -14.13%.
For Cc1ccc2cccc(OCC(C)CS(C)(=O)=O)c2n1 (stereo not given) the result was 1.374%.
For Fc1ccc(-c2noc(CN3CCSCC3)n2)cc1 the result was -24.77%.
For Cc1n[nH]c(C)c1CCN(C)C(=O)c1cccc(N)n1 the result was -11.45%.
For CNCc1ccc2nsnc2c1 the result was 6.249%.
For CN(Cc1cccc(C(N)=O)c1)C(=O)c1occc1Br the result was 14.02%.
For NC1CCC(N2CCCCC2=O)CC1 (stereo not given) the result was -6.663%.
For Cc1cc(C(=O)NC(C)(C)CO)cc(C)c1F the result was 10.03%.
For N#Cc1ccc(OC2CCNC2)nc1 (stereo not given) the result was -2.784%.
For O=c1cc(C2CCC2)nc[nH]1 the result was -14.9%.
For CCN1CCCN(C(=O)Nc2ccc(C)cc2)CC1 the result was -8.602%.
For CCNC(=O)C(C)NC(=O)NCc1ccnc(OC)c1 (stereo not given) the result was -35.58%.
For NC(=O)C1CSCCN1CCCF (stereo not given) the result was -0.8641%.
For CC(Cc1ccccc1F)C(=O)N1CC[C@H](O)C1 (stereo not given in full) the result was 2.917%.
For COc1ccc(CN2CC[C@@]3(O)CCCC[C@H]3C2)cn1 the result was -15.62%.
For NC1CCC(=O)NC1 (stereo not given) the result was -15.78%.
For Cc1cc(NCc2ncc[nH]2)ccc1F the result was 35.4%.
For CN(C)C(CNC(=O)Nc1ccccn1)c1ccco1 (stereo not given) the result was 2.493%.

For reference, 7 entries once more:

| structure | Percent Effect |
|---|---|
| `NCc1cccc(OCC(F)F)n1` | 5.85% |
| `N#Cc1ccc(OC2CCNC2)nc1` (stereo not given) | -2.784% |
| `CC(C)(C)CNc1ccc(OCCO)nc1` | -89.87% |
| `NC1CCC(=O)NC1` (stereo not given) | -15.78% |
| `O=C(NCCCN1CCOCC1)c1cc(Br)c[nH]1` | 10.71% |
| `CN1N=C(C(=O)NCc2cccc(C#N)c2)CCC1=O` | 0.195% |
| `CCC(=O)NCC(c1ccsc1)N(C)C` (stereo not given) | 6.978% |

Measurements from “University of Dundee, Small-Polar-MMV Screening Library” (2021), ChEMBL document CHEMBL3988442.